Binding data for 2 substances are collected here from PMC7949103.

The chains behind the UniProt entries cited, without tags or fusion partners. Residues count along the entry.
UniProt P60953: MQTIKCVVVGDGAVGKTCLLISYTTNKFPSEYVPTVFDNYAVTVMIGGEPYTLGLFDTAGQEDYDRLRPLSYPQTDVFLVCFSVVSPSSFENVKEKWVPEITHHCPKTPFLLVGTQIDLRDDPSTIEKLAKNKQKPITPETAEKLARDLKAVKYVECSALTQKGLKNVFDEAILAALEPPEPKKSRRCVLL
UniProt Q13153, residues 69-109: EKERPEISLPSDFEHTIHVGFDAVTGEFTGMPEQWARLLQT
UniProt Q96KP1, residues 5-97: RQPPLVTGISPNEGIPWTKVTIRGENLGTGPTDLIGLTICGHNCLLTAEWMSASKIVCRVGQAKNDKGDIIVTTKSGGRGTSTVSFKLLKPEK

No constants are given. Whether binding was seen depends on the method and setting. In cells and extracts the contact can be indirect. Some results given as binding are weak or reduced against the parent protein; the word gives no strength. For part of these data: Sequences can lack the tags named with a protein.

In test [1] the target is RA-Cdc42 (ddRFPA-fused Cdc42) (UniProt P60953). The test can be described thus: split reporter; dimerization-dependent red fluorescent protein: ddRFPB on the RBD, ddRFPA on the GTPase; HeLa cells also expressing the corresponding opto-GTPase, 458-nm laser every 10 s; Leibovitz's L-15 medium; fluorescence of the whole cell.
Test [2] deals with T1, RA-RalB (ddRFPA-fused RalB) (UniProt P11234).
T1 sequence: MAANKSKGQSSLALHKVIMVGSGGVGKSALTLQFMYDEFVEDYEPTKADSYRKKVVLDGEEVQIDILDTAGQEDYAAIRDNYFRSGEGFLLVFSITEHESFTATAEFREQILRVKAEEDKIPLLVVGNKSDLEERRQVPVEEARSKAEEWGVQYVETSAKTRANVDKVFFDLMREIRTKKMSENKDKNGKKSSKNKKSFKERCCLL
As to the kind of experiment: split reporter; ddRFP biosensors in cells treated with lysophosphatidic acid (LPA) or epidermal growth factor (EGF); data not shown.

The target in test [3] is T1, RA-RalB (ddRFPA-fused RalB). The test can be described thus: split reporter; dimerization-dependent red fluorescent protein: ddRFPB on the RBD, ddRFPA on the GTPase; HeLa cells also expressing the corresponding opto-GTPase, 458-nm laser every 10 s; Leibovitz's L-15 medium; fluorescence of the whole cell.

Consider “B3-RBD_(PAK1) (ddRFPB-fused RBD of PAK1, amino acids 69-109) (from UniProt Q13153 69-109) (domain or fragment)”, for which the binding result in test [1] was “binds”. As to “B3-RBD_(Sec5) (ddRFPB-fused RBD of Sec5, amino acids 5-97) (from UniProt Q96KP1 5-97) (domain or fragment)”, the binding result in test [2] and in test [3] was “binds” throughout.
